This test has as its target T1, TAP-tagged Kap120 (S. cerevisiae, UniProt Q02932 1-1032).
T1 sequence (looked up): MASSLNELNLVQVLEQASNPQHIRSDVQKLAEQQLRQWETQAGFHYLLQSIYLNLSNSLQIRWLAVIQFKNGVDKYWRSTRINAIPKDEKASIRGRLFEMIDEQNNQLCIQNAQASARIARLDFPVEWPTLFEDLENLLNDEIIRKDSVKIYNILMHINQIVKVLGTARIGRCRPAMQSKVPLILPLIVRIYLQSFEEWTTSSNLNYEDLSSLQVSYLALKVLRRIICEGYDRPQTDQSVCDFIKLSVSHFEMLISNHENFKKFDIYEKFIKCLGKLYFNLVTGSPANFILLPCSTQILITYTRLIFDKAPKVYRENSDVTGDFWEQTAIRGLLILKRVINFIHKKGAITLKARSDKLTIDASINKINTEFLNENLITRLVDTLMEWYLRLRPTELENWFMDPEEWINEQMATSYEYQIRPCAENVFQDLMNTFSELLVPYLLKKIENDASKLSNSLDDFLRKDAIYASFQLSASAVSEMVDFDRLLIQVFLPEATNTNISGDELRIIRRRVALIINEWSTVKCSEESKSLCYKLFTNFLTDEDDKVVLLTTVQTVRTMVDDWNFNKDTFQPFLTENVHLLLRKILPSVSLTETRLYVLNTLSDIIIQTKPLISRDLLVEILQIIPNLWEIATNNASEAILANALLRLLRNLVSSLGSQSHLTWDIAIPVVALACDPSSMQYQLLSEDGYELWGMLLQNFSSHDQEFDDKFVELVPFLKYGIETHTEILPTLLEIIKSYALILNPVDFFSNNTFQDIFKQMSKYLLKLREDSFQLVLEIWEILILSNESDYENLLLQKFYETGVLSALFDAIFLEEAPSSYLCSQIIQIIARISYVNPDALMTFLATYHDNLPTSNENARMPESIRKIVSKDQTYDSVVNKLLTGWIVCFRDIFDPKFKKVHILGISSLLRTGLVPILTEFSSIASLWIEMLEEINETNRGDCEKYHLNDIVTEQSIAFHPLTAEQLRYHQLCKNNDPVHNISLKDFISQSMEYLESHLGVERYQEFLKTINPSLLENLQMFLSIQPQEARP
Put plainly: co-IP.

Sequences of proteins named here, by UniProt entry; tags and fusion partners are left off.
UniProt P22147: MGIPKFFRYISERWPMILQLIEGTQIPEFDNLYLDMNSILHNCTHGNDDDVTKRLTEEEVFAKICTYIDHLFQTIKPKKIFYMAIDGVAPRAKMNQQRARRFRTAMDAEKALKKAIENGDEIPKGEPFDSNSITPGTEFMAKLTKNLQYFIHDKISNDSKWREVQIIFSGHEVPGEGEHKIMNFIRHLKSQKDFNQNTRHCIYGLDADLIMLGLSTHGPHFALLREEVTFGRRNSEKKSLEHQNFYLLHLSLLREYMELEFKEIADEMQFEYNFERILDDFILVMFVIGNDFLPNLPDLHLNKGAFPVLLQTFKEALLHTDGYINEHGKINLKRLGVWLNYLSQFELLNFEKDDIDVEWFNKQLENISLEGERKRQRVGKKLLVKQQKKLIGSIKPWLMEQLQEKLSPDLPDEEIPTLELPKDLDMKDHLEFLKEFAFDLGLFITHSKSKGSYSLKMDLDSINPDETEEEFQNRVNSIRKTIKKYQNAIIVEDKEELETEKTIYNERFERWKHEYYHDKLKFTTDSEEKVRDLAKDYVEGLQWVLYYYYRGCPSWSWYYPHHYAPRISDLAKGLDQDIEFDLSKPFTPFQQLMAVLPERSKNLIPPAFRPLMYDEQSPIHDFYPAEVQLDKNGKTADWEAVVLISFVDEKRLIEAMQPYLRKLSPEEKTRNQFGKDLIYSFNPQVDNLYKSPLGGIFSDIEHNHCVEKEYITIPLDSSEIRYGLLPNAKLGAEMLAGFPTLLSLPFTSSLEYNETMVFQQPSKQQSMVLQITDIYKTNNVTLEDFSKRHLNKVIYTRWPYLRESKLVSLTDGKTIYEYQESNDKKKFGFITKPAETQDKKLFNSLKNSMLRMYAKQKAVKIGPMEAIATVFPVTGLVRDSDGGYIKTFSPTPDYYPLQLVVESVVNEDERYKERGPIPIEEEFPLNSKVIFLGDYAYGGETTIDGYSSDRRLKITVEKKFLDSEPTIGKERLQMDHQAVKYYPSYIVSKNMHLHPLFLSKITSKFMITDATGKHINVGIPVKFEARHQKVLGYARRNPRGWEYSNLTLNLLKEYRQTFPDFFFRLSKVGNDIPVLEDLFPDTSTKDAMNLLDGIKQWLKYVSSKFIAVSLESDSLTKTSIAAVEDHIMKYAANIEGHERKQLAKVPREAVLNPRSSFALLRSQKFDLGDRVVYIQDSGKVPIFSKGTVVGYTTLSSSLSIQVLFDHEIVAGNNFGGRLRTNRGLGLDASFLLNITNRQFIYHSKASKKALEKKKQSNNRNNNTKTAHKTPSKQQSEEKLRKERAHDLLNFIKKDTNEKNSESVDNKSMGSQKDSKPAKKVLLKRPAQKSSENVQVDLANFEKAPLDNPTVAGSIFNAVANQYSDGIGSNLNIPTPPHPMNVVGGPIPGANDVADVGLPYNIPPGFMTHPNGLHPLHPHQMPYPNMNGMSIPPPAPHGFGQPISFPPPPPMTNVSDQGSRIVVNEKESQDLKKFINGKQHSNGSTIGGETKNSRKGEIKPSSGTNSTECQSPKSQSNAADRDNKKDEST

Read-outs that look alike come from different tables or passages of the source. No constants are given. Whether binding was seen depends on the method and setting. Binding seen in cells or lysates may run through a third protein. Some binding calls cover weakened binding; strength is not graded here. Sequences can lack the tags named with a protein.

As to “FLAG-tagged Xrn1 (wild type) (from UniProt P22147 1-1528) (enzyme)”, the binding result is listed as “binds”. Moreover, the binding result (record 2) is on record as “binds”.

B1: Pat1 (natural protein, S. cerevisiae (endogenous in yeast), UniProt P25644 1-796, looked up)
chain: MSFFGLENSGNARDGPLDFEESYKGYGEHELEENDYLNDETFGDNVQVGTDFDFGNPHSSGSSGNAIGGNGVGATARSYVAATAEGISGPRTDGTAAAGPLDLKPMESLWSTAPPPAMAPSPQSTMAPAPAPQQMAPLQPILSMQDLERQQRQMQQQFMNFHAMGHPQGLPQGPPQQQFPMQPASGQPGPSQFAPPPPPPGVNVNMNQMPMGPVQVPVQASPSPIGMSNTPSPGPVVGATKMPLQSGRRSKRDLSPEEQRRLQIRHAKVEKILKYSGLMTPRDKDFITRYQLSQIVTEDPYNEDFYFQVYKIIQRGGITSESNKGLIARAYLEHSGHRLGGRYKRTDIALQRMQSQVEKAVTVAKERPSKLKDQQAAAGNSSQDNKQANTVLGKISSTLNSKNPRRQLQIPRQQPSDPDALKDVTDSLTNVDLASSGSSSTGSSAAAVASKQRRRSSYAFNNGNGATNLNKSGGKKFILELIETVYEEILDLEANLRNGQQTDSTAMWEALHIDDSSYDVNPFISMLSFDKGIKIMPRIFNFLDKQQKLKILQKIFNELSHLQIIILSSYKTTPKPTLTQLKKVDLFQMIILKIIVSFLSNNSNFIEIMGLLLQLIRNNNVSFLTTSKIGLNLITILISRAALIKQDSSRSNILSSPEISTWNEIYDKLFTSLESKIQLIFPPREYNDHIMRLQNDKFMDEAYIWQFLASLALSGKLNHQRIIIDEVRDEIFATINEAETLQKKEKELSVLPQRSQELDTELKSIIYNKEKLYQDLNLFLNVMGLVYRDGEISELK
B1: the binding result is on record as “binds”.

(Values after publication doi:10.1101/2021.04.01.437949 (bioRxiv, 2021).)
